Screening data, single-dose tests

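Whole-parasite assay of Trypanosoma brucei over 72 hours; the read-out is not stated. Tested at 30 µM. The record gives no direction; compounds that gave an IC50 in retests scored well above the rest, so higher reads as stronger inhibition. Values scatter widely below zero; nearly all retest evidence comes from the higher of the two concentrations used. Of about 64,000 compounds tested this way, about 940 (1.5%) reached 50% or more in at least one test.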

The filed quantity is “Percent Effect” (%). The record does not define 0% and 100%; most values in the screen are far below 50% and negative numbers occur (in some assays of this library far below -100). This is an unselected part of the compounds tested.

For Cc1cc(NC(=O)N2CCCC2C(C)(C)O)c2ncccc2c1 (stereo not shown) the result was -36.24%. CC(=O)N1CCCCC1c1nc2c(c(N3CCCCC3)n1)CN(C)CC2 (stereo not shown) gave 5.46%. With CC(C)C(CNCc1cccc2c1OCO2)N1CCOCC1 (stereo not shown) the screen gave -16.96%. For Cc1nn(C)c(N(C)C)c1CNCc1ccc(Cn2cncn2)cc1 the result was 21.34%. Result for CSCCC1c2nc[nH]c2CCN1Cc1[nH]c2ccc(F)cc2c1C (stereo not shown) was -65.45%.

CC(CNC1CCN(Cc2ccncc2)CC1)c1ccc(F)cc1F (stereo not shown) read -1.233%. COCC[C@]1(O)CCN(Cc2nnc(C)s2)C[C@H]1C read -14.31%. For CCOCCN1CCN(Cc2nnc(C3CC3)o2)CC1 the result was -27.56%. CCn1ncnc1CN1CCc2[nH]cnc2C1Cc1ccccc1 (stereo not shown) read -16.89%. With CCn1c(NCc2cccnc2)nc2c(C)nn(C)c2c1=O the screen gave -24.21%.

[H][C@]12CCN(C(=O)Cc3ccc4c(c3)CCCC4)CC[C@]1([H])N(C)C(=O)CO2 read -13.12%. With O=C(c1ccc(-n2ccnc2)cc1)N1CCN(c2cnccn2)CC1 the screen gave 0.8554%. CC(C)c1noc(CCCC(=O)NC(C)c2nnc3n2CCC3)n1 (stereo not shown) gave -33.69%. CN(CCc1cccc2ccccc12)Cc1nc(N)nc(N(C)C)n1 gave -65.35%. [H][C@@]12CN(c3ccccn3)C[C@]1([H])N(Cc1ccccc1OC)C(=O)O2 read -56.04%.

Result for CN(C)c1ncccc1CN1CCOC(C(=O)Nc2ccccc2)C1 (stereo not shown) was 22.46%. With CCOCc1nc2c(c(NCCNC(C)=O)n1)CCN(C(C)=O)CC2 the screen gave -7.868%. With O=C(CCc1ccccc1)N1CCn2cc(CN3CCCC3)nc2C1 the screen gave -8.77%. CCCc1cc(C(=O)N2Cc3cnc(C(C)(C)C)nc3C2)ccn1 read -33.62%. For CC(C)OCc1ccc(CNC(=O)CC(F)(F)F)cc1 the result was 26.64%.

CC(C)N1CCN(CCn2cnc3c(F)cccc3c2=O)CC1 gave -14.35%. Result for O=C1CCC(=O)N1CCOc1nc(-c2ccccc2Cl)no1 was -18.79%. For COCCS(=O)(=O)NC(C)c1cccc(C)c1C (stereo not shown) the result was -21.42%. Cc1nc(CSCCC(=O)NCc2ccncc2)cs1 gave -6.737%. [H][C@@]12CCCN1C[C@@H](CCSC)N(Cc1coc3ccc(Cl)cc3c1=O)C2 read -2.418%.

O=C(O)C(F)(F)F.[H][C@@]12COC[C@]1([H])[C@H](OCc1csc(C)n1)CN2Cc1ccc(OC)cc1 gave -65.66%. With O=C(c1cnnn1-c1ccccc1)N1CCCC(c2ccn[nH]2)C1 (stereo not shown) the screen gave -19.47%. For CCc1nc(CC(=O)N2CCCC2c2c(C)nn(C)c2OC)cs1 (stereo not shown) the result was -8.178%. Cc1cc(CN(Cc2ccccc2)CC(O)c2cccs2)on1 (stereo not shown) read -20.33%. Result for Cc1ccc(-c2cc(N)c(=O)n(CC(=O)NC3CCCCC3)n2)s1 was 11.25%.

For CNCC[C@H]1CC(C)(C)Oc2ccc(C)cc21 the result was -14.43%. Result for CC(C)NC(=O)CN1CCCNCC1 was -0.962%. COCCN1CCOCC12CCN(C(=O)c1ccncc1)CC2.O=C(O)C(F)(F)F read 21.2%. CCS(=O)(=O)N1CCN(C(=O)C(C)C)CC2(CC(=O)N(C)C2)C1 (stereo not shown) gave -19.41%. With O=C(CN1CCOC(Cn2cccn2)C1)Nc1nccs1 (stereo not shown) the screen gave 19.07%.

c1cnc(N2CCC3(COCc4cnc(N5CCOCC5)nc43)C2)nc1 (stereo not shown) read -43.2%. Cc1cc(S(=O)(=O)Nc2cccc(I)c2)sc1C(=O)O read -24.21%. For COCCSCC(=O)NCc1ccnc(N(C)C)c1 the result was -13.01%. O=C(O)C(F)(F)F.[H][C@@]12CCCO[C@]1([H])[C@H](NC(=O)c1cnoc1C)CN(c1ncccn1)C2 gave 6.67%. [H][C@@]12C[C@H](C(=O)N3CCCC3)[C@@]([H])(CN(c3ncc(F)cn3)C1)O2 read -1.674%.

CCC1CN(CCCNS(C)(=O)=O)c2ccccc2O1 (stereo not shown) gave -19.36%. Result for CN(CCCC1CCCO1)S(=O)(=O)NCc1ccccc1 (stereo not shown) was 6.93%. Result for O=C(O)c1ccccc1-c1ccc(CN2CC(O)C2)cc1 was -4.932%. CC(=O)c1ccc(OCC(=O)NC(C)CCc2ccco2)cc1 (stereo not shown) gave -13.4%. With CC/C=C(/C)C(=O)NS(=O)(=O)c1ccc(C#N)c(C(F)(F)F)c1 the screen gave -21.51%.

For CC(C)c1nnc(CN2CCCC(c3cc(C(N)=O)[nH]n3)C2)o1 (stereo not shown) the result was -10.21%. CC1(C)CCC(C(=O)N2CCCO2)c2ccccc21 (stereo not shown) read -58.84%. With Cn1cc(C2CCCN2C(=O)c2cn(-c3ccccc3)nn2)cn1 (stereo not shown) the screen gave -0.5302%. CC(NC(=O)N(C)Cc1ccsc1)c1ccc2c(c1)OCO2 (stereo not shown) gave 1.979%. CC(=O)c1nn(-c2ccccc2Cl)c(C)c1C(C)=O read -7.716%.

O=C(CCc1cn[nH]c1)N1C[C@@H](CN2CCOCC2)C[C@H](CO)C1 gave -40.01%. With CC(=O)N1CCC(n2ccc(-c3cnc(N4CCOCC4)nc3)n2)CC1 the screen gave 26%.

From ChEMBL document CHEMBL3988442, “University of Dundee, Small-Polar-MMV Screening Library” (2021).